Test results reported in US12378320B2, “Methods for treating pancreatitis” (Cold Spring Harbor Laboratory, priority 2018, dated 2025).

Tested on: CA19-9 modified proteins
Experiment: CA19-9 IP/MS (iTRAQ) of organoid conditioned media after Dox treatment
Design: species or system mouse
Settings: CA19-9 IP/MS relative abundance; for 17 0H NS19 / 17 8H 5B1 / 17 8H NS19: A217 (genetic negative) organoid conditioned media; for 17 0H NS19 / 20 0H 5B1: 0H (before treatment); for 17 0H NS19 / 17 8H NS19: IP with NS19-9; for 17 0H NS19: reference channel = 1; for 17 8H 5B1 / 17 8H NS19: after 8 hours; for 17 8H 5B1 / 20 0H 5B1: IP with 5B1; for 20 0H 5B1: A220 (C;R^LSL;F) organoid conditioned media

B1: Q9QWL7 (protein, UniProt Q9QWL7 1-433, looked up)
chain: MTTTIRQFTSSSSIKGSSGLGGGSSRTSCRLSGSLGAGSCRLGSASGLGSALGSNSYSSCYSFGTGSGYGGNFGGVDGLLAGGEKATMQNLNDRLASYLDKVRALEEANTELEVKIRDWYQKQAPGPARDYSAYYHTIEDLKNKILVATVDNASILLQIDNARLAADDFRTKFETEQALRMSVEADINGLRRVLDELTLARADLEMQIENLKEELAYLKKNHEEEMNALRGQVGGEINVEMDAAPGVDLSRILSEMRDQYEKMAEKNRKDAEDWFFSKTEELNREVATNSELVQSGKSEISELRRTMQALEIELQSQLSMKASLEGSLAETENRYCVQLSQIQGLIGSVEEQLAQLRCEMEQQNQEYKILLDVKTRLEQEIATYRRLLEGEDAHLTQYKPKEPVTTRQVRTIVEEVQDGKVISSREQVHQTTR
modifications: full-length
In the case of B1, the “17 0H NS19” value is reported as 1, the “17 8H 5B1” value is reported as 0.892 and the “17 8H NS19” value is reported as 0.727. The “20 0H 5B1” value was 0.848.

B2: Q9Z2K1 (protein, UniProt Q9Z2K1 1-469, looked up)
chain: MATCSRQFTSSSSMKGSCGIGGGSSRMSSILAGGSCRAPSTCGGMSVTSSRFSSGGVCGIGGGYGGSFSSSSFGGGLGSGFGGRFDGFGGGFGAGLGGGLGGGIGDGLLVGSEKVTMQNLNDRLATYLDKVRALEEANRDLEVKIRDWYQRQRPTEIKDYSPYFKTIEDLKSKIIIATQENAQFTLQIDNARLAADDFRTKYENELFLRQSVEGDINGLRKVLDELTLSRADLEMQIENLREELAFLKKNHEEEMLALRGQTGGDVNVEMDAAPGVDLSRILNEMRDQYEQMAEKNRRDVEAWFLRKTEELNKEVASNSDLIQSNRSEVAELRRVFQGLEIELQSQLSMKASLENSLEETKGRYCMQLSQIQGLISSVEEQLAQLRCEMEQQSQEYNILLDVKTRLEQEIATYRRLLDGENIHSSSQHSSGQSYSSREVFSSSSRQPRSILKEQGSTSFSQSQSQSSRD
modifications: full-length
In the case of B2, the “17 0H NS19” value is reported as 1, the “17 8H 5B1” value is reported as 0.566 and the “17 8H NS19” value is reported as 1.553. The “20 0H 5B1” value was 1.182.

B3: P19001 (protein, UniProt P19001 1-403, looked up)
chain: MTSYSYRQTSAMSSFGGTGGGSVRIGSGGVFRAPSIHGGSGGRGVSVSSTRFVTSSSGSYGGVRGGSFSGTLAVSDGLLSGNEKITMQNLNDRLASYLDKVRALEQANGELEVKIRDWYQKQGPGPSRDYNHYFKTIEDLRDKILGATIDNSKIVLQIDNARLAADDFRTKFETEHALRLSVEADINGLRRVLDELTLARTDLEMQIESLKEELAYLKKNHEEEITALRSQVGGQVSVEVDSTPGVDLAKILSEMRSQYEIMAEKNRKDAEATYLARIEELNTQVAVHSEQIQISKTEVTDLRRTLQGLEIELQSQLSMKAALEGTLAETEARYGVQLSQIQSVISGFEAQLSDVRADIERQNQEYKQLMDIKSRLEQEIATYRSLLEGQEAHYNNLPTPKAI
modifications: full-length
With B3 the “17 0H NS19” value was 1, the “17 8H 5B1” value was 1.015 and the “17 8H NS19” value was 0.774. The “20 0H 5B1” value was 0.775.

B4: O35565 (protein, UniProt O35565 1-209, looked up)
chain: MWKWILTHCASAFPHLPGCCCCFLLLFLVSSFPVTCQALGQDMVSQEATNCSSSSSSFSSPSSAGRHVRSYNHLQGDVRWRRLFSFTKYFLTIEKNGKVSGTKNEDCPYSVLEITSVEIGVVAVKAINSNYYLAMNKKGKLYGSKEFNNDCKLKERIEENGYNTYASFNWQHNGRQMYVALNGKGAPRRGQKTRRKNTSAHFLPMTIQT
modifications: full-length
For B4, the “17 0H NS19” value was 1, the “17 8H 5B1” value was 6.439 and the “17 8H NS19” value was 0.678. For the same molecule, the “20 0H 5B1” value was 6.246.

B5: Q61838 (protein, UniProt Q61838 1-1495, looked up)
chain: MRRNQLPTPAFLLLFLLLPRDATTATAKPQYVVLVPSEVYSGVPEKACVSLNHVNETVMLSLTLEYAMQQTKLLTDQAVDKDSFYCSPFTISGSPLPYTFITVEIKGPTQRFIKKKSIQIIKAESPVFVQTDKPIYKPGQIVKFRVVSVDISFRPLNETFPVVYIETPKRNRIFQWQNIHLAGGLHQLSFPLSVEPALGIYKVVVQKDSGKKIEHSFEVKEYVLPKFEVIIKMQKTMAFLEEELPITACGVYTYGKPVPGLVTLRVCRKYSRYRSTCHNQNSMSICEEFSQQADDKGCFRQVVKTKVFQLRQKGHDMKIEVEAKIKEEGTGIELTGIGSCEIANALSKLKFTKVNTNYRPGLPFSGQVLLVDEKGKPIPNKNITSVVSPLGYLSIFTTDEHGLANISIDTSNFTAPFLRVVVTYKQNHVCYDNWWLDEFHTQADHSATLVFSPSQSYIQLELVFGTLACGQTQEIRIHYLLNEDIMKNEKDLTFYYLIKARGSIFNLGSHVLSLEQGNMKGVFSLPIQVEPGMAPEAQLLIYAILPNEELVADAQNFEIEKCFANKVNLSFPSAQSLPASDTHLKVKAAPLSLCALTAVDQSVLLLKPEAKLSPQSIYNLLPGKTVQGAFFGVPVYKDHENCISGEDITHNGIVYTPKHSLGDNDAHSIFQSVGINIFTNSKIHKPRFCQEFQHYPAMGGVAPQALAVAASGPGSSFRAMGVPMMGLDYSDEINQVVEVRETVRKYFPETWIWDLVPLDVSGDGELAVKVPDTITEWKASAFCLSGTTGLGLSSTISLQAFQPFFLELTLPYSVVRGEAFTLKATVLNYMSHCIQIRVDLEISPDFLAVPVGGHENSHCICGNERKTVSWAVTPKSLGEVNFTATAEALQSPELCGNKLTEVPALVHKDTVVKSVIVEPEGIEKEQTYNTLLCPQDTELQDNWSLELPPNVVEGSARATHSVLGDILGSAMQNLQNLLQMPYGCGEQNMVLFVPNIYVLNYLNETQQLTEAIKSKAINYLISGYQRQLNYQHSDGSYSTFGNHGGGNTPGNTWLTAFVLKAFAQAQSHIFIEKTHITNAFNWLSMKQKENGCFQQSGYLLNNAMKGGVDDEVTLSAYITIALLEMPLPVTHSAVRNALFCLETAWASISQSQESHVYTKALLAYAFALAGNKAKRSELLESLNKDAVKEEDSLHWQRPGDVQKVKALSFYQPRAPSAEVEMTAYVLLAYLTSESSRPTRDLSSSDLSTASKIVKWISKQQNSHGGFSSTQDTVVALQALSKYGAATFTRSQKEVLVTIESSGTFSKTFHVNSGNRLLLQEVRLPDLPGNYVTKGSGSGCVYLQTSLKYNILPVADGKAPFALQVNTLPLNFDKAGDHRTFQIRINVSYTGERPSSNMVIVDVKMVSGFIPMKPSVKKLQDQPNIQRTEVNTNHVLIYIEKLTNQTLGFSFAVEQDIPVKNLKPAPIKVYDYYETDEFTVEEYSAPFSDGSEQGNA
modifications: full-length
With B5 the “17 0H NS19” value was 1, the “17 8H 5B1” value was 0.354 and the “17 8H NS19” value was 1.026. For the same molecule, the “20 0H 5B1” value was 0.309.

B6: P62631 (protein, UniProt P62631 1-463, looked up)
chain: MGKEKTHINIVVIGHVDSGKSTTTGHLIYKCGGIDKRTIEKFEKEAAEMGKGSFKYAWVLDKLKAERERGITIDISLWKFETTKYYITIIDAPGHRDFIKNMITGTSQADCAVLIVAAGVGEFEAGISKNGQTREHALLAYTLGVKQLIVGVNKMDSTEPAYSEKRYDEIVKEVSAYIKKIGYNPATVPFVPISGWHGDNMLEPSPNMPWFKGWKVERKEGNASGVSLLEALDTILPPTRPTDKPLRLPLQDVYKIGGIGTVPVGRVETGILRPGMVVTFAPVNITTEVKSVEMHHEALSEALPGDNVGFNVKNVSVKDIRRGNVCGDSKADPPQEAAQFTSQVIILNHPGQISAGYSPVIDCHTAHIACKFAELKEKIDRRSGKKLEDNPKSLKSGDAAIVEMVPGKPMCVESFSQYPPLGRFAVRDMRQTVAVGVIKNVEKKSGGAGKVTKSAQKAQKAGK
modifications: full-length
B6 was tested, and the “17 0H NS19” value was 1, the “17 8H 5B1” value was 4.606 and the “17 8H NS19” value was 0.615. The “20 0H 5B1” value was 4.076.

B7: P97466 (protein, UniProt P97466 1-232, looked up)
chain: MERCPSLGVTLYALVVVLGLRAAPAGGQHYLHIRPAPSDNLPLVDLIEHPDPIFDPKEKDLNETLLRSLLGGHYDPGFMATSPPEDRPGGGGGPAGGAEDLAELDQLLRQRPSGAMPSEIKGLEFSEGLAQGKKQRLSKKLRRKLQMWLWSQTFCPVLYAWNDLGSRFWPRYVKVGSCFSKRSCSVPEGMVCKPSKSVHLTVLRWRCQRRGGQRCGWIPIQYPIISECKCSC
modifications: full-length
B7 was tested, and the “17 0H NS19” value was 1, the “17 8H 5B1” value was 10.991 and the “17 8H NS19” value was 0.71. For the same molecule, the “20 0H 5B1” value was 9.104.
